The target of this test is T1, AtTT8-BD (AtTT8 bHLH protein fused to the GAL4 DNA-binding domain) (Arabidopsis thaliana) (UniProt Q9FT81).
T1 sequence: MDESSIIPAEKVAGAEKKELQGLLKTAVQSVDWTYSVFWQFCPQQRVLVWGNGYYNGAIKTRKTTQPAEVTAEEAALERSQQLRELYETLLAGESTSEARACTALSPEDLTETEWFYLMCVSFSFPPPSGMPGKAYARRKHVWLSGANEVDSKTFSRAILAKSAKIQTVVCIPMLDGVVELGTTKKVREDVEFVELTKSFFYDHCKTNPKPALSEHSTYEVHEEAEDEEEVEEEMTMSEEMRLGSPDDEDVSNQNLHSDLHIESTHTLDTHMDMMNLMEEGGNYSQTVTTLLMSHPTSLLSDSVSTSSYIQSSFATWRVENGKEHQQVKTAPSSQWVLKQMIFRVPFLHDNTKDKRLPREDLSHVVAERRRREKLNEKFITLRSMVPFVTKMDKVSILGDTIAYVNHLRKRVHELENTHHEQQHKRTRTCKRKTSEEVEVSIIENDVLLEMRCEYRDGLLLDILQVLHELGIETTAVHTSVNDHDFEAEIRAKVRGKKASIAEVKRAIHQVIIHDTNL
In words: two-hybrid; GAL4 system in yeast AH109; prey in pGADT7 (AD), bait in pGBKT7 (BD); growth on SD/-Trp/-Leu, SD/-Trp/-Leu/-Ade/-His and quadruple dropout medium with X-Gal, photographed after 3-4 days.

No constants are given. Whether binding was seen depends on the method and setting. Binding can be weak; no strength is given. Sequences can lack the tags named with a protein.

For the substance “EsMYB9-AD (R2R3-MYB transcription factor EsMYB9 fused to the GAL4 activation domain) (Epimedium sagittatum)”, the binding result is listed as “binds”.

For the origin of these results see paper PMC5515856.
